Assay [1] deals with ReNCell VM. As to the kind of experiment: neuronal differentiation score (DCX+ cell fraction vs untreated, manual image score) (score (-3 to 3)); higher = more neuronal differentiation. The following applies: 2 uM, 2 weeks.
For assay [2], the system named is ReNCell VM. As to the kind of experiment: dopaminergic neuron differentiation score (TH+ cell fraction vs untreated, manual image score) (score (0 to 3)); higher = more TH+ dopaminergic neuron differentiation. The following applies: 2 uM, 4 weeks, BDNF 10 ng/ml + GDNF 10 ng/ml.

Where a name gives a salt, the structure may show the parent alone. This is one part of the list. This data set is noisy: repeats of one test often differ as much as different tests do.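 ReNCell VM, a human fetal ventral-midbrain neural progenitor line, was differentiated without mitogens. Blinded raters scored images stained for doublecortin (early neurons) or tyrosine hydroxylase (dopaminergic neurons) against untreated wells (0 = no change). Scores were averaged across repeats and both raters, and compounds averaging 2 or more were selected as hits for retesting.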

For `COc1c2occc2cc2ccc(=O)oc12`, in assay [1] (library: Spectrum), the neuronal differentiation score was inactive: 0. The “dopaminergic neuron differentiation score” value in assay [2] (library: Spectrum) is inactive: 0.
Regarding `OC1(c2ccc(Cl)c(C(F)(F)F)c2)CCN(CCCC(c2ccc(F)cc2)c2ccc(F)cc2)CC1`, in assay [1] (library: Spectrum), the neuronal differentiation score is active: 3. Also, the “dopaminergic neuron differentiation score” value in assay [2] (library: Spectrum) is inactive: 0.
In the case of `OCCOCCN1CCN(C2=Nc3ccccc3Sc3ccccc32)CC1` [Quetiapine], the neuronal differentiation score in assay [1] (library: Prestwick) was inactive: 0. In assay [2] (library: Prestwick), the “dopaminergic neuron differentiation score” value is inactive: 0.
Take `O=C(Oc1ccccc1C(=O)O)c1ccccc1O`: the neuronal differentiation score in assay [1] (library: Spectrum) is inactive: 1. Moreover, the “dopaminergic neuron differentiation score” value in assay [2] (library: Spectrum) was inactive: 0.
Turning to `CC(C)(C)c1ccc(C(O)CCCN2CCC(C(O)(c3ccccc3)c3ccccc3)CC2)cc1` (stereo not given), the neuronal differentiation score in assay [1] (library: Spectrum) was inactive: 0. Also, the “dopaminergic neuron differentiation score” value in assay [2] (library: Spectrum) was inactive: 0.
For the molecule `[N-]=[N+]=Nc1ccc(C(=O)CSC[C@H](NC(=O)CC[C@H](N)C(=O)O)C(=O)NCC(=O)O)cc1` [S-(p-Azidophenacyl)glutathione], the neuronal differentiation score in assay [1] (library: LOPAC) was inactive: 0. Besides, the “dopaminergic neuron differentiation score” value in assay [2] (library: LOPAC) was inactive: 0.
With `CC1=C(C(=O)O)N2C(=O)[C@@H](NC(=O)[C@H](N)c3ccc(O)cc3)[C@H]2SC1`, the neuronal differentiation score in assay [1] (library: Spectrum) is inactive: 1. The “dopaminergic neuron differentiation score” value in assay [2] (library: Spectrum) was inactive: 0.
Consider `CC(Cc1ccc(O)c(O)c1)(NN)C(=O)O` (stereo not drawn) [S-(-)-Carbidopa], for which the neuronal differentiation score in assay [1] (library: LOPAC) was inactive: 1. Further, in assay [2] (library: LOPAC), the “dopaminergic neuron differentiation score” value was inactive: 0.
With `CC(=O)N[C@@H](C=O)[C@@H](O)[C@H](O)[C@H](O)CO`, the neuronal differentiation score in assay [1] (library: Spectrum) was inactive: 0. Also, the “dopaminergic neuron differentiation score” value in assay [2] (library: Spectrum) is inactive: 0.
`O=C(/C=C/c1ccc(O)cc1)c1ccc(O)cc1O`: the neuronal differentiation score in assay [1] (library: Spectrum) is inactive: 0. Moreover, the “dopaminergic neuron differentiation score” value in assay [2] (library: Spectrum) was inactive: 0.
As for `CC(C)=CCCC1(C)C=Cc2c(O)c3c(c(CC=C(C)C)c2O1)OC12C(=CCCC1C(C)(C)O[C@@]2(C/C=C(\C)C(=O)O)C(=O)O)C3=O` (stereo not given in full), the neuronal differentiation score in assay [1] (library: Spectrum) is inactive: 0. Further, the “dopaminergic neuron differentiation score” value in assay [2] (library: Spectrum) is inactive: 0.
As to `S=C(S)OC1CC2CC1C1CCCC21` [D-609 potassium], the neuronal differentiation score in assay [1] (library: LOPAC) is inactive: 0. Moreover, the “dopaminergic neuron differentiation score” value in assay [2] (library: LOPAC) was inactive: 0.
Turning to `CO/N=C(\C(=O)N[C@@H]1C(=O)N2C(C(=O)O)=C(CSc3nc(=O)c(O)nn3C)CS[C@H]12)c1csc(N)n1` [Ceftriaxone sodium], in assay [1] (library: LOPAC), the neuronal differentiation score is inactive: 0. Besides, the “dopaminergic neuron differentiation score” value in assay [2] (library: LOPAC) is inactive: 0.
Take `O=c1[nH]cc(F)c(=O)[nH]1` [5-fluorouracil]: the neuronal differentiation score in assay [1] (library: Prestwick) is inactive: 0. The “dopaminergic neuron differentiation score” value in assay [2] (library: Prestwick) was inactive: 0.
In the case of `NC[C@@H]1CC[C@@H](N)[C@@H](O[C@H]2[C@H](O)[C@@H](O[C@H]3O[C@H](CO)[C@@H](O)[C@H](N)[C@H]3O)[C@H](N)C[C@@H]2N)O1`, in assay [1] (library: Spectrum), the neuronal differentiation score is inactive: 0. In assay [2] (library: Spectrum), the “dopaminergic neuron differentiation score” value was inactive: 0.
Consider `C[C@]12CC[C@@H]3c4ccc(OC(=O)c5ccccc5)cc4CC[C@H]3[C@@H]1CC[C@@H]2O`, for which, in assay [1] (library: Spectrum), the neuronal differentiation score was inactive: 0. Besides, the “dopaminergic neuron differentiation score” value in assay [2] (library: Spectrum) was inactive: 0.
Consider `N#C/C(=C\c1ccc(O)c(O)c1)C(=O)NCCCNC(=O)/C(C#N)=C/c1ccc(O)c(O)c1` [Tyrphostin AG 537], for which the neuronal differentiation score in assay [1] (library: LOPAC) is inactive: 0. The “dopaminergic neuron differentiation score” value in assay [2] (library: LOPAC) was inactive: 1.
For the molecule `c1ccc(CC2=NCCN2)cc1` [Tolazoline hydrochloride], the neuronal differentiation score in assay [1] (library: Prestwick) is active: 3. In assay [2] (library: Prestwick), the “dopaminergic neuron differentiation score” value is inactive: 0.
For the molecule `O=c1[nH]c(=O)n([C@H]2C[C@H](O)[C@@H](CO)O2)cc1F` [Floxuridine], the neuronal differentiation score in assay [1] (library: Prestwick) was inactive: 0. For the same molecule, the “dopaminergic neuron differentiation score” value in assay [2] (library: Prestwick) was inactive: 0.
With `Cc1cc(C(=O)NNCc2ccccc2)no1` [Isocarboxazid], the neuronal differentiation score in assay [1] (library: Prestwick) is inactive: 0. Also, the “dopaminergic neuron differentiation score” value in assay [2] (library: Prestwick) is inactive: 0.
For `Cc1cc(F)c(Nc2ncnc3cc(OCc4ccccc4)ccc23)cc1O`, the neuronal differentiation score in assay [1] (library: Tocriscreen) is inactive: 0. For the same molecule, the “dopaminergic neuron differentiation score” value in assay [2] (library: Tocriscreen) is inactive: 0.
`c1ccc(-c2ccc(C(c3ccccc3)n3ccnc3)cc2)cc1` (stereo not given) [Bifonazole]: the neuronal differentiation score in assay [1] (library: Prestwick) is inactive: 0. Also, in assay [2] (library: Prestwick), the “dopaminergic neuron differentiation score” value is active: 3.
For the molecule `Cc1cn([C@H]2C[C@H](N=[N+]=[N-])[C@@H](CO)O2)c(=O)[nH]c1=O`, the neuronal differentiation score in assay [1] (library: Spectrum) was inactive: 0. The “dopaminergic neuron differentiation score” value in assay [2] (library: Spectrum) is inactive: 0.
For the molecule `COc1ccc(C(=O)OC2CC3CCC(C2)N3C(C)=O)cc1OC` (stereo not given) [convolicine], the neuronal differentiation score in assay [1] (library: Natural) is inactive: 0. The “dopaminergic neuron differentiation score” value in assay [2] (library: Natural) was inactive: 0.
In the case of `CN(C)[C@@H]1C(O)=C(C(N)=O)C(=O)[C@@]2(O)C(O)=C3C(=O)c4c(O)ccc(Cl)c4[C@@](C)(O)[C@H]3C[C@@H]12` [Chlortetracycline hydrochloride], the neuronal differentiation score in assay [1] (library: Prestwick) was inactive: 0. Further, the “dopaminergic neuron differentiation score” value in assay [2] (library: Prestwick) is inactive: 0.
